From article PMC3514159
Results are given in words; binding and its absence hold for the method and conditions named. For some assays here: In cells and extracts the contact can be indirect. Some results given as binding are weak or reduced against the parent protein; the word gives no strength.

Protein sequences, listed by entry. Tags and fused reporters are not part of them.
UniProt P09022: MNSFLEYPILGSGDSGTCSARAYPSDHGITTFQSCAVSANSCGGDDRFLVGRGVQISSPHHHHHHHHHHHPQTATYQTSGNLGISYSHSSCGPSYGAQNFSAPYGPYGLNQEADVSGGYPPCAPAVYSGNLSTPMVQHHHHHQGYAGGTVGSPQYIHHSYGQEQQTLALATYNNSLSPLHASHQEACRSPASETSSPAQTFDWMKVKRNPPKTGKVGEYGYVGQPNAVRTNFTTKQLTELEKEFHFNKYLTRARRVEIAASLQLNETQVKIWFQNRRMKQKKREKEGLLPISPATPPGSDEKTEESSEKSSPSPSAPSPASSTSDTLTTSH
UniProt Q92824: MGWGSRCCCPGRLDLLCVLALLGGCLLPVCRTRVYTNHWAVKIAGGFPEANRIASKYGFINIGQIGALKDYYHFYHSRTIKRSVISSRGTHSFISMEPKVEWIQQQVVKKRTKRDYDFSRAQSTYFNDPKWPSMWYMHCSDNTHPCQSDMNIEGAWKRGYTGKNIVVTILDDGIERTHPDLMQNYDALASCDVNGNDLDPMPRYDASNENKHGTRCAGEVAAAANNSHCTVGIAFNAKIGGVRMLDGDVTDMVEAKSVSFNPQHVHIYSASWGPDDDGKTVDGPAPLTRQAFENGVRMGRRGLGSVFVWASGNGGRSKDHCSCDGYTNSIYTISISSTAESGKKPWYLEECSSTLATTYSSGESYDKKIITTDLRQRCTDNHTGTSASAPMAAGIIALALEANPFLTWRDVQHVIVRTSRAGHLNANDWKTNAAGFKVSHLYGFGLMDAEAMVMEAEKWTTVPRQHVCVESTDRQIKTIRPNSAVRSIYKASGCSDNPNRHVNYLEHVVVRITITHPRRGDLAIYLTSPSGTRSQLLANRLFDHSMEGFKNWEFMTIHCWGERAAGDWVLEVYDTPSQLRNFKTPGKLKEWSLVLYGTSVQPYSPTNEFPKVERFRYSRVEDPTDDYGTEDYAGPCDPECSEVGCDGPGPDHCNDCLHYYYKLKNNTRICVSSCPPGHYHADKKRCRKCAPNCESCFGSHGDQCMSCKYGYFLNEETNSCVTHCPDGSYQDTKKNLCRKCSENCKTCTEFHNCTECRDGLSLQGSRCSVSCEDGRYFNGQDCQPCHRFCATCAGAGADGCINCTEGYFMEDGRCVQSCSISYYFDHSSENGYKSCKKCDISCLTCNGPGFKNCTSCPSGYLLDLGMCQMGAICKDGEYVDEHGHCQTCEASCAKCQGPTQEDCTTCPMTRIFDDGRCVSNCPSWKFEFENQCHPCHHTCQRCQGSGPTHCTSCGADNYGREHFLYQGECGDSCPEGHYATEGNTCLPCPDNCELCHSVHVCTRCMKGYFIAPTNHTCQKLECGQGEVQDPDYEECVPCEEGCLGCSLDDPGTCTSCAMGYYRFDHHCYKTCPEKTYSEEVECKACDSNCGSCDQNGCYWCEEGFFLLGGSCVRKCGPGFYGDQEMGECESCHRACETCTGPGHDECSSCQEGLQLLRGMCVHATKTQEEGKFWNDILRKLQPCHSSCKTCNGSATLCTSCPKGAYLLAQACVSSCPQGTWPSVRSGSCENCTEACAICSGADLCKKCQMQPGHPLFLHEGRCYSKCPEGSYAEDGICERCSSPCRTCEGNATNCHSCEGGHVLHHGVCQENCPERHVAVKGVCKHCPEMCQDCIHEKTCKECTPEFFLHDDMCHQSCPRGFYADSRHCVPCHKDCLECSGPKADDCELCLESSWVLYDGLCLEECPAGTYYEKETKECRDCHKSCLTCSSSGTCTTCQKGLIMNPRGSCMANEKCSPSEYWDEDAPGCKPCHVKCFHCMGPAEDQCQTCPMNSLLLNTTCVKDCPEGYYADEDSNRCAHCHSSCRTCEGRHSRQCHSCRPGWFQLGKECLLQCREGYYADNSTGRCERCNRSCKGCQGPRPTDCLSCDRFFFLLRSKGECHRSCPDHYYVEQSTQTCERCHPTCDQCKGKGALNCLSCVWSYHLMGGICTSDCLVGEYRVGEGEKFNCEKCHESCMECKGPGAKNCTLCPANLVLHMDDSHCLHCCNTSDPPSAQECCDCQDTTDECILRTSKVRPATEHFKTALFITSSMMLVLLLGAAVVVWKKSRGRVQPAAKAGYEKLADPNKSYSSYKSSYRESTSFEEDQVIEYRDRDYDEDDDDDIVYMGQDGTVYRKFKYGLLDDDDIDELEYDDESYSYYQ
UniProt Q9BYR6: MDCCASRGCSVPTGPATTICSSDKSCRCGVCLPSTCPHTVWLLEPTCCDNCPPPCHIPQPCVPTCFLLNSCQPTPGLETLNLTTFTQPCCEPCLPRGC
UniProt Q9Y2Y4: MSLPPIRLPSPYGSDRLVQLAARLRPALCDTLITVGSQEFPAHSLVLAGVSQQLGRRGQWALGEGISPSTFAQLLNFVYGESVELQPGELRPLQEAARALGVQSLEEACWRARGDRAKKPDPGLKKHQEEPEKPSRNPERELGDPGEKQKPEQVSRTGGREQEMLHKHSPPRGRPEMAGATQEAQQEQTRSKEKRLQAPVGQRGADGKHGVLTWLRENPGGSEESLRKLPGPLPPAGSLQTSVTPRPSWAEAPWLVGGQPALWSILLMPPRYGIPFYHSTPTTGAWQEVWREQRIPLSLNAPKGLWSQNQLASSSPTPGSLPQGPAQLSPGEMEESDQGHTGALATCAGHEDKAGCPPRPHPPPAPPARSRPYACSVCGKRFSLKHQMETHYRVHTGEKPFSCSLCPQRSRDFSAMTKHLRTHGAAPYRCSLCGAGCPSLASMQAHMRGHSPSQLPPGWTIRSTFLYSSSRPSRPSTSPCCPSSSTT
UniProt Q8WUM4: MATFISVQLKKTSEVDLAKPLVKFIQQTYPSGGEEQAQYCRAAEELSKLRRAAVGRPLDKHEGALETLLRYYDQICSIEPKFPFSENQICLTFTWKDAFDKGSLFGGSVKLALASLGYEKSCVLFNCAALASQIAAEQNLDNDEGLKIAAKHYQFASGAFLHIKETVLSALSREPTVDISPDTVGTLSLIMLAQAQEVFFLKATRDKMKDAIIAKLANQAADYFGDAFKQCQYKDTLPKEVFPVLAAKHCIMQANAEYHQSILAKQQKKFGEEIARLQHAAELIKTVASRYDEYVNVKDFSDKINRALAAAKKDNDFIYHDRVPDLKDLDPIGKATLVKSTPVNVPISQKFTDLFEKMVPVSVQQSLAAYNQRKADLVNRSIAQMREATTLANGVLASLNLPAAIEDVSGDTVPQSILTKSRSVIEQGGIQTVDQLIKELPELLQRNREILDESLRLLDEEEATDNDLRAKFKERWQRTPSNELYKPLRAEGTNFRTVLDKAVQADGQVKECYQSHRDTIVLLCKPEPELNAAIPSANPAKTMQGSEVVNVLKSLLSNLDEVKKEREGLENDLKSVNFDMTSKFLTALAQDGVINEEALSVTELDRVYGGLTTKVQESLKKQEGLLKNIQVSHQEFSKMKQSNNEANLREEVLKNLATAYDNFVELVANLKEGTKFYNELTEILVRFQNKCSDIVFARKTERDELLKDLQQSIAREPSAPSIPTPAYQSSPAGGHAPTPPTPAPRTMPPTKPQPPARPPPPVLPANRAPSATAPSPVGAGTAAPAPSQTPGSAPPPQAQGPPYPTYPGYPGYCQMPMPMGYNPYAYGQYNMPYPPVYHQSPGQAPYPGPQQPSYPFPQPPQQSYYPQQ
UniProt Q99697: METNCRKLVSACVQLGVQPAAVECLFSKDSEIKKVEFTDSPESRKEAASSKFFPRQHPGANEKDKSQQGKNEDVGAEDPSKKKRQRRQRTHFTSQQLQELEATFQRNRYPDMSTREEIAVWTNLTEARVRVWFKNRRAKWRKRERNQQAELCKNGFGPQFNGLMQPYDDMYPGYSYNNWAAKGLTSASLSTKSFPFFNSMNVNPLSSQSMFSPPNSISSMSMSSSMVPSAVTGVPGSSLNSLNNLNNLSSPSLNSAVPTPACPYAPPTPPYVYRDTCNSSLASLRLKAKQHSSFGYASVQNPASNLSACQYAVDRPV
UniProt P31249: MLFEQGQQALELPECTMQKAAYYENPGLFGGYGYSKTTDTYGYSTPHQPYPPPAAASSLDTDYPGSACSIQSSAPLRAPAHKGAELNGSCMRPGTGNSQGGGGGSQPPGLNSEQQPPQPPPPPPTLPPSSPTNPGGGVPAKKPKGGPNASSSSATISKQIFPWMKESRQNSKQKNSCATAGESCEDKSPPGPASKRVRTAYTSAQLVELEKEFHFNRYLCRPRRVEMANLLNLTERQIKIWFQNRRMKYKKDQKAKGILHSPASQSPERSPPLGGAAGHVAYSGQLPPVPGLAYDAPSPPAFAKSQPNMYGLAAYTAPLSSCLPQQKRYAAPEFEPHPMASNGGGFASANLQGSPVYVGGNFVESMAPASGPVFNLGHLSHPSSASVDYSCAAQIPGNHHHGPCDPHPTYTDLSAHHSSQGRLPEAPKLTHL
UniProt Q8N5R6: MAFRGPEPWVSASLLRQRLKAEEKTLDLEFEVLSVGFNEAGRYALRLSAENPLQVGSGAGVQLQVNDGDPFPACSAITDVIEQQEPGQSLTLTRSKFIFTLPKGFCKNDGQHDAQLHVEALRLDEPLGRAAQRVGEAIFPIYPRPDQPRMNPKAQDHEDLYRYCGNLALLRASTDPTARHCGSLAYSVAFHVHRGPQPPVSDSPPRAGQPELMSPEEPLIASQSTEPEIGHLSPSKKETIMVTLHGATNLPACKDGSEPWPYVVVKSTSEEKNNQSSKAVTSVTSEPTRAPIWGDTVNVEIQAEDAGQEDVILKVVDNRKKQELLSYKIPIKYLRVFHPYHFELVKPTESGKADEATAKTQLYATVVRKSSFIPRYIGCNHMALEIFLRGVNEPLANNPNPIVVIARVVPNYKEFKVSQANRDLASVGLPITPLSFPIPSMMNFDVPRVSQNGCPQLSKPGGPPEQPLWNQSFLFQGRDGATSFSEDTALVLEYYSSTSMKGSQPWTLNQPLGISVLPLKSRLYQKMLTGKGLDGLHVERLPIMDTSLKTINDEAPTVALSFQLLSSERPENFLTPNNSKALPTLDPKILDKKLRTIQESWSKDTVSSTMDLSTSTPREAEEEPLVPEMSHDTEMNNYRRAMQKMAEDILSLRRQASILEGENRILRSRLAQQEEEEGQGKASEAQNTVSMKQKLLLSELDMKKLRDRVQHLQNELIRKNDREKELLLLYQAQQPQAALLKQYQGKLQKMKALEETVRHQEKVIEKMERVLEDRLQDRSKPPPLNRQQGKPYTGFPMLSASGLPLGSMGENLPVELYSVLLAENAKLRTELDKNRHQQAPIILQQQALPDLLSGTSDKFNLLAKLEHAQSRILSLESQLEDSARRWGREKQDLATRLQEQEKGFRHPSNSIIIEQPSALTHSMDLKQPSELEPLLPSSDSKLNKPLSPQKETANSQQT
UniProt Q9BYM8: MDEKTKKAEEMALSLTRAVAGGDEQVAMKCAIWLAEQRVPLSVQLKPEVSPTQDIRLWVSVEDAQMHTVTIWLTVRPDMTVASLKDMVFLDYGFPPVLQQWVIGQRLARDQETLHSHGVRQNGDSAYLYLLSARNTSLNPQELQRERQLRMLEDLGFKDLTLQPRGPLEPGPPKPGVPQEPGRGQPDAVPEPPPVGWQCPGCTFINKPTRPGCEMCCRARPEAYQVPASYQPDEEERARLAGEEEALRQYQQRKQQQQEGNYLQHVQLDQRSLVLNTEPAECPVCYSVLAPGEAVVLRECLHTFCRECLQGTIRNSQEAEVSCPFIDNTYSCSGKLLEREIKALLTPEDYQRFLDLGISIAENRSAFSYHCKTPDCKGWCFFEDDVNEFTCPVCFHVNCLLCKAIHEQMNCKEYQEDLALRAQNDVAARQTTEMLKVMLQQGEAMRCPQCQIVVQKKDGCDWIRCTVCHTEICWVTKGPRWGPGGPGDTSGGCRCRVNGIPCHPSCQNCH
UniProt O75865: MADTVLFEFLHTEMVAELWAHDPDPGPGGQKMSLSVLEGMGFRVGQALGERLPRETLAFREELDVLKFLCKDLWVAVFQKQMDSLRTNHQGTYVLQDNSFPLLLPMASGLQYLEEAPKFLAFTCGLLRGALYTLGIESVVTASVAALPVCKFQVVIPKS
UniProt Q9BYR7: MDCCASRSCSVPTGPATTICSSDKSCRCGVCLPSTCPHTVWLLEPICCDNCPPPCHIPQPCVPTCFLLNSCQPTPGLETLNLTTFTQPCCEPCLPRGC
UniProt P48059: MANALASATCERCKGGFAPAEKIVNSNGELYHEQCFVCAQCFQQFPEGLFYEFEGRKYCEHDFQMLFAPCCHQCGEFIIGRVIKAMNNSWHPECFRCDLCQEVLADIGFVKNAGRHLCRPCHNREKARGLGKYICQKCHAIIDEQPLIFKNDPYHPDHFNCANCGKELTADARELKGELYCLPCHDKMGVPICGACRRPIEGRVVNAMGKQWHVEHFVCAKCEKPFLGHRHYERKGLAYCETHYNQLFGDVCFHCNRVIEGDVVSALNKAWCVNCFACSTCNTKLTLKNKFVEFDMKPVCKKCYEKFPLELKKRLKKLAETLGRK

Columns and labels:
VC155-Hoxa1 (mouse) = VC155-Hoxa1 (mouse) (UniProt P09022); test: split reporter; BiFC in transfected MCF10A cells: VN173-hORF with VC155-Hoxa1; fixed 24 h after transfection, confocal microscopy
Hoxa1 (mouse) = Hoxa1 (mouse) (UniProt P09022); test: two-hybrid; DB-Hoxa1 (Gal4 DNA binding domain) in MATα Y8930 mated with the AD-hORF library (human ORFeome v3.1) in MATa Y8800; 30°C; selection on Sc-L-T-H + 1 mM 3AT, retest on Sc-L-T-H, Sc-L-T-A and Sc-L-T-H-A+3AT

Row | Substance | binding (VC155-Hoxa1 (mouse)) | binding (Hoxa1 (mouse))
1 | IKAROS family zinc finger 2 (from UniProt Q9UKS7 1-526) | binds | 
2 | proprotein convertase subtilisin/kexin type 5 (from UniProt Q92824 1-1860) |  | binds
3 | keratin associated protein 3-3 (from UniProt Q9BYR6 1-98) |  | binds
4 | zinc finger and BTB domain containing 32 (from UniProt Q9Y2Y4 1-487) | binds | binds
5 | programmed cell death 6 interacting protein (from UniProt Q8WUM4 1-868) | binds | 
6 | paired-like homeodomain 2 (from UniProt Q99697 1-317) | binds | 
7 | homeobox A1 (from UniProt P49639 1-335) | binds | binds
8 | EGF-containing fibulin-like extracellular matrix protein 2 (from UniProt O95967 1-443) |  | binds
9 | homeobox D3 (from UniProt P31249 1-432) | binds | binds
10 | RNA binding protein with multiple splicing (from UniProt Q93062 1-196) | binds | binds
11 | coiled-coil domain containing 33 (from UniProt Q8N5R6 1-958) |  | binds
12 | RanBP-type and C3HC4-type zinc finger containing 1 (from UniProt Q9BYM8 1-510) | binds | binds
13 | PDZ and LIM domain 7 (from UniProt Q9NR12-1 1-457) | binds | binds
14 | trafficking protein particle complex 6A (from UniProt O75865 1-159) | binds | 
15 | keratin associated protein 3-2 (from UniProt Q9BYR7 1-98) | binds | binds
16 | LIM and senescent cell antigen-like domains 1 (from UniProt P48059 1-325) | binds | 
